According to paper PMC5349237:
Results are given in words; binding and its absence hold for the method and conditions named. Binding seen in cells or lysates may run through a third protein. Some binding calls cover weakened binding; strength is not graded here.

The chains behind the UniProt entries cited, without tags or fusion partners.
UniProt O14727: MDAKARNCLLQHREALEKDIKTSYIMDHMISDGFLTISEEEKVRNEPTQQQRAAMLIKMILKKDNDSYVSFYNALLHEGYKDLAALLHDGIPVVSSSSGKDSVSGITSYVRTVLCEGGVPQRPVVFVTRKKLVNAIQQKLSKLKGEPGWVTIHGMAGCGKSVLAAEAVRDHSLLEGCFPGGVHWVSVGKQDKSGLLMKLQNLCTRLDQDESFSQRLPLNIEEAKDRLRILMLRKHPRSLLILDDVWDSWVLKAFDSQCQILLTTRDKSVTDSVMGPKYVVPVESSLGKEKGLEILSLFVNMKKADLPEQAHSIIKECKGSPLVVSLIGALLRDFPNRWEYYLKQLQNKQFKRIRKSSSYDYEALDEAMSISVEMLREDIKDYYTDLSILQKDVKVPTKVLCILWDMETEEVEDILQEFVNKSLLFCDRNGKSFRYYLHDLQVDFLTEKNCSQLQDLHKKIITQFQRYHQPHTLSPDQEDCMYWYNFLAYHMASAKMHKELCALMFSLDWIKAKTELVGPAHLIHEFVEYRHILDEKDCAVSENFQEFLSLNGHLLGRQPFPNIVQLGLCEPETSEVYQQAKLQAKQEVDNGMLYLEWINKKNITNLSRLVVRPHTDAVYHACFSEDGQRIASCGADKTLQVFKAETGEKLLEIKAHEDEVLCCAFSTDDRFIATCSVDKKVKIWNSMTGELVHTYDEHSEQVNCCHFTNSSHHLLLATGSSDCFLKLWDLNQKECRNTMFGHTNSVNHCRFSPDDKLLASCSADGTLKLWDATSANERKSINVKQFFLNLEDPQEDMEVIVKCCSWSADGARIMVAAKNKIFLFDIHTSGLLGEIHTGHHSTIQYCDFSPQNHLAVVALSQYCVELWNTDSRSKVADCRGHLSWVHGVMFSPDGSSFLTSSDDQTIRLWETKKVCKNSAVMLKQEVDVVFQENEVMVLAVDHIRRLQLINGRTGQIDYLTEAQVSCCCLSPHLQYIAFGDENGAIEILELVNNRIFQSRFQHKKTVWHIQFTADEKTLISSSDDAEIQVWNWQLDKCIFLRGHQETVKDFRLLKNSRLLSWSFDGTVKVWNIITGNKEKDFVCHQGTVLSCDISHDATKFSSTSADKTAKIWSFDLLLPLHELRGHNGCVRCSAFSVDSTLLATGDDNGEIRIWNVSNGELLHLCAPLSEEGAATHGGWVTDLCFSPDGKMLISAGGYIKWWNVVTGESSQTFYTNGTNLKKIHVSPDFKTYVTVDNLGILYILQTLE
UniProt P62894: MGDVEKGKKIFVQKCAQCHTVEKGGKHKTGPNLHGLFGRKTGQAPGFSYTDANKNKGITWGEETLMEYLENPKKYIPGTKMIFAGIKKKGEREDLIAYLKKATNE

Target: apoptotic protease activating factor 1 (Apaf-1) (human (endogenous in Jurkat)) (UniProt O14727)
Assay: co-IP; cell-free cytosolic Jurkat extract, with or without preincubation with T. gondii (1 × 10^8 per ml), activated with 10 µg/ml cytochrome c, 250 µM dATP and 250 µM DTT; Apaf-1 precipitated with anti-Apaf-1 (clone 24) and protein A-Sepharose with 100 µM Ac-DMQD-CHO; blot for cytochrome c; only the binder purified

binding: binds
Substance: cytochrome c (from UniProt P62894 1-105)
